Laboratory results from patent US7214696B2, “Compositions and methods for stabilizing transthyretin and inhibiting transthyretin misfolding” (The Scripps Research Institute, priority 2002, dated 2007).
Some entries share one result that the patent states for a list of compounds. For at least one compound, name, drawing or mass did not settle the structure.

Columns and labels:
TTR tetramer = TTR tetramer (Homo sapiens, UniProt P02766); test: Inhibitor binding constants and ground-state stabilization of T·I2, Example 1; settings: inhibitor 3.6 μM
TTR = TTR (Homo sapiens, UniProt P02766); test: Wash-associated loss of PCB from immobilized recombinant TTR, Example 4; assay type: binding; set-up: made in house; host or cells: Escherichia coli BL21/DE3 Epicurian gold, pmmHα plasmid; settings: 10.8 μM compound, recombinant TTR 3.6 μM

SMILES | free energy of stabilization of the T·I2 complex (TTR tetramer) | decrease of stoichiometry after 5 washes (wash-associated loss) (TTR)
O=C(O)c1cccc2oc(-c3c(Cl)cccc3Cl)nc12 [Compound 6] | exceeding 2.3 kcal/mol | –
O=C(O)c1cccc2oc(-c3ccccc3)nc12 [Compound 7] | exceeding 2.3 kcal/mol | –
Oc1c(Cl)cc(-c2cc(Cl)c(O)c(Cl)c2)cc1Cl [OH-PCB 18] | – | 10–17%
Clc1cccc(-c2ccccc2)c1 [PCB 2] | – | 10–17%
